Test results taken from publication PMC5175275.
These are yes or no findings as the source states them, for the method shown. A result given as binding can be weak or reduced; the word gives no strength.

Legend:
[1] = biological target: truncated Isl1 lacking 40 amino acids at the C-terminus (bait pGBKT7-Isl1-860bp); assay: two-hybrid; retest: single bait and prey plasmids cotransformed into Yeast Gold; clones patched onto DDO/X/A and QDO/X/A medium
[2] = biological target: truncated Isl1 lacking 40 amino acids at the C-terminus (bait pGBKT7-Isl1-860bp); assay: two-hybrid; library screen: Yeast Gold with bait pGBKT7-Isl1-860bp mated with yeast containing a mouse testis cDNA library; selection on DDO/X/A for 5 days at 30 °C, then on QDO/X/A

binding [1]: binds
binding [2]: binds
B1: protein inhibitor of activated STAT Y (PIASy), prey in pGADT7 (protein, UniProt Q9JM05 1-507)
chain: MAAELVEAKNMVMSFRVSDLQMLLGFVGRSKSGLKHELVTRALQLVQFDCSPELFKKIKELYETRYAKKSAEPGPQAPRPLDPLALHSMPRTPLSGPTVDYPVLYGKYLNGLGRLPTKTLKPEVRLVKLPFFNMLDELLKPTELVPQSAEKLQESPCIFALTPRQVEMIRNSRELQPGVKAVQVVLRICYSDTSCPQEDQYPPNIAVKVNHSYCSVPGYYPSNKPGVEPKRPCRPINLTHLMYLSSATNRITVTWGNYGKSYSVALYLVRQLTSSDLLQRLKTIGVKHPELCKALVKEKLRLDPDSEIATTGVRVSLICPLVKMRLSVPCRAETCAHLQCFDAVFYLQMNEKKPTWMCPVCDKPAAYDQLIIDGLLSKILSECEGADEIEFLAEGSWRPIRAEKEPSCSPQGPILVLGTSDANGLAPASSTPGIGSGLSGPGSAGSGAGAAGSLENGKTGADVVDLTLDSSSSSEDEDEDEDDDEDEDEGPRPKRRCPFQKGLVPAC
